# Source: the supplement of paper PMC8728848
# Some of the results follow.
# B1: OS9-MRH (Homo sapiens), Q13438 (protein)
# chain: IPELLSPMRDAPCLLKTKDWWTYEFCYGRHIQQYHMEDSEIKGEVLYLGYYQSAFDWDDETAKASKQHRLKRYHSQTYGNGSKCDLNGRPREAEVRFLCDEGAGISGDYIDRVDEPLSCSYVLTIRTPRLCPHPLLRPPPSAAPQAI
# Columns and labels:
# Test in all cases: glycan array binding signal (z-score within array); higher = stronger binding
# Details in all cases: glycan notation: IUPAC condensed, linker removed
# [1] = target: Fuc(a1-2)[Gal(a1-3)]Gal(b1-4)GlcNAc(b1-2)Man(a1-3)[Fuc(a1-2)[Gal(a1-3)]Gal(b1-4)GlcNAc(b1-2)Man(a1-6)]Man(b1-4)GlcNAc(b1-4)GlcNAc
# Outline: (§1)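 The binding signal is a Z-score computed within each array and averaged over linkers. Arrays of the same protein sequence at different concentrations or buffers were also averaged together. Data originate from 3228 arrays in the Consortium for Functional Glycomics database, kept only where the protein sequence was available.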
# [2] = target: Fuc(a1-2)[Gal(a1-3)]Gal(b1-4)GlcNAc(b1-2)Man(a1-3)[Fuc(a1-2)[Gal(a1-3)]Gal(b1-4)GlcNAc(b1-2)Man(a1-6)]Man(b1-4)GlcNAc(b1-4)[Fuc(a1-6)]GlcNAc
# Outline: as §1
# [3] = target: Fuc(a1-2)[Gal(a1-3)]Gal(b1-4)GlcNAc(b1-3)GalNAc
# Outline: as §1
# [4] = target: Fuc(a1-2)[Gal(a1-3)]Gal(b1-4)GlcNAc(b1-3)[Fuc(a1-2)[Gal(a1-3)]Gal(b1-4)GlcNAc(b1-6)]GalNAc
# Outline: as §1
# [5] = target: Fuc(a1-2)[Gal(a1-3)]Gal(b1-4)GlcNAc(b1-6)GalNAc
# Outline: as §1
# [6] = target: Fuc(a1-2)[Gal(a1-3)]Gal(b1-4)[Fuc(a1-3)]Glc
# Outline: as §1
# [7] = target: Fuc(a1-2)[Gal(a1-3)]Gal(b1-4)[Fuc(a1-3)]GlcNAc
# Outline: as §1
# [8] = target: Fuc(a1-2)[Gal(a1-3)]Gal(b1-4)[Fuc(a1-3)]GlcNAc(b1-3)GalNAc
# Outline: as §1
# [9] = target: Fuc(a1-2)[Gal(a1-4)]Gal(b1-4)GlcNAc
# Outline: as §1
# [10] = target: Fuc(a1-2)[GalNAc(a1-3)]Gal
# Outline: as §1
# [11] = target: Fuc(a1-2)[GalNAc(a1-3)]Gal(b1-3)GalNAc(a1-3)[Fuc(a1-2)]Gal(b1-4)GlcNAc
# Outline: as §1
# [12] = target: Fuc(a1-2)[GalNAc(a1-3)]Gal(b1-3)GalNAc(b1-3)Gal(a1-4)Gal(b1-4)Glc
# Outline: as §1
# [13] = target: Fuc(a1-2)[GalNAc(a1-3)]Gal(b1-3)GlcNAc
# Outline: as §1
# [14] = target: Fuc(a1-2)[GalNAc(a1-3)]Gal(b1-3)GlcNAc(b1-2)Man(a1-3)[Fuc(a1-2)[GalNAc(a1-3)]Gal(b1-3)GlcNAc(b1-2)Man(a1-6)]Man(b1-4)GlcNAc(b1-4)GlcNAc
# Outline: as §1
# [15] = target: Fuc(a1-2)[GalNAc(a1-3)]Gal(b1-3)GlcNAc(b1-2)Man(a1-3)[Fuc(a1-2)[GalNAc(a1-3)]Gal(b1-3)GlcNAc(b1-2)Man(a1-6)]Man(b1-4)GlcNAc(b1-4)[Fuc(a1-6)]GlcNAc
# Outline: as §1
# [16] = target: Fuc(a1-2)[GalNAc(a1-3)]Gal(b1-3)GlcNAc(b1-3)GalNAc
# Outline: as §1
# [17] = target: Fuc(a1-2)[GalNAc(a1-3)]Gal(b1-3)GlcNAc(b1-6)GalNAc
# Outline: as §1
# [18] = target: Fuc(a1-2)[GalNAc(a1-3)]Gal(b1-4)Glc
# Outline: as §1
# [19] = target: Fuc(a1-2)[GalNAc(a1-3)]Gal(b1-4)GlcNAc
# Outline: as §1
# [20] = target: Fuc(a1-2)[GalNAc(a1-3)]Gal(b1-4)GlcNAc(b1-2)Man
# Outline: as §1
# [21] = target: Fuc(a1-2)[GalNAc(a1-3)]Gal(b1-4)GlcNAc(b1-2)Man(a1-3)[Fuc(a1-2)[GalNAc(a1-3)]Gal(b1-4)GlcNAc(b1-2)Man(a1-6)]Man(b1-4)GlcNAc(b1-4)GlcNAc
# Outline: as §1
# [22] = target: Fuc(a1-2)[GalNAc(a1-3)]Gal(b1-4)GlcNAc(b1-2)Man(a1-3)[Fuc(a1-2)[GalNAc(a1-3)]Gal(b1-4)GlcNAc(b1-2)Man(a1-6)]Man(b1-4)GlcNAc(b1-4)[Fuc(a1-6)]GlcNAc
# Outline: as §1
# [23] = target: Fuc(a1-2)[GalNAc(a1-3)]Gal(b1-4)GlcNAc(b1-3)Gal(b1-4)GlcNAc
# Outline: as §1
# [24] = target: Fuc(a1-2)[GalNAc(a1-3)]Gal(b1-4)GlcNAc(b1-3)Gal(b1-4)GlcNAc(b1-3)Gal(b1-4)GlcNAc
# Outline: as §1
# [25] = target: Fuc(a1-2)[GalNAc(a1-3)]Gal(b1-4)GlcNAc(b1-3)GalNAc
# Outline: as §1
# [26] = target: Fuc(a1-2)[GalNAc(a1-3)]Gal(b1-4)GlcNAc(b1-3)[Fuc(a1-2)[GalNAc(a1-3)]Gal(b1-4)GlcNAc(b1-6)]GalNAc
# Outline: as §1
# [27] = target: Fuc(a1-2)[GalNAc(a1-3)]Gal(b1-4)GlcNAc(b1-6)GalNAc
# Outline: as §1
# [28] = target: Fuc(a1-2)[GalNAc(a1-3)]Gal(b1-4)[Fuc(a1-3)]GlcNAc
# Outline: as §1
# [29] = target: Fuc(a1-2)[GalNAc(a1-3)]Gal(b1-4)[Fuc(a1-3)]GlcNAc(b1-3)GalNAc
# Outline: as §1
# [30] = target: Fuc(a1-2)[GalNAc(a1-4)]Gal(b1-4)GlcNAc
# Outline: as §1
# [31] = target: Fuc(a1-2)[GalNAc(b1-3)]Gal
# Outline: as §1
# Fuc(a1-3)GlcNAc = target: Fuc(a1-3)GlcNAc
# Outline: as §1
# [32] = target: Fuc(a1-3)[Gal(b1-4)]Glc6S
# Outline: as §1
# [33] = target: Fuc(a1-3)[Gal(b1-4)]GlcNAc
# Outline: as §1
# [34] = target: Fuc(a1-3)[Gal(b1-4)]GlcNAc(b1-2)Man
# Outline: as §1
# [35] = target: Fuc(a1-3)[Gal(b1-4)]GlcNAc(b1-2)Man(a1-3)[Fuc(a1-3)[Gal(b1-4)]GlcNAc(b1-2)Man(a1-6)]Man(b1-4)GlcNAc(b1-4)GlcNAc
# Outline: as §1
# [36] = target: Fuc(a1-3)[Gal(b1-4)]GlcNAc(b1-2)Man(a1-3)[Fuc(a1-3)[Gal(b1-4)]GlcNAc(b1-2)Man(a1-6)]Man(b1-4)GlcNAc(b1-4)[Fuc(a1-6)]GlcNAc
# Outline: as §1
# [37] = target: Fuc(a1-3)[Gal(b1-4)]GlcNAc(b1-3)Gal(b1-3)[Fuc(a1-4)]GlcNAc
# Outline: as §1
# [38] = target: Fuc(a1-3)[Gal(b1-4)]GlcNAc(b1-3)Gal(b1-4)[Fuc(a1-3)]GlcNAc
# Outline: as §1
# [39] = target: Fuc(a1-3)[Gal(b1-4)]GlcNAc(b1-3)Gal(b1-4)[Fuc(a1-3)]GlcNAc(b1-3)Gal(b1-4)[Fuc(a1-3)]GlcNAc
# Outline: as §1
# [40] = target: Fuc(a1-3)[Gal(b1-4)]GlcNAc(b1-3)GalNAc
# Outline: as §1
# [41] = target: Fuc(a1-3)[Gal(b1-4)]GlcNAc(b1-6)GalNAc
# Outline: as §1
# [42] = target: Fuc(a1-3)[Gal(b1-4)]GlcNAc(b1-6)[Gal(b1-3)GlcNAc(b1-3)]Gal(b1-4)Glc
# Outline: as §1
# [43] = target: Fuc(a1-3)[Gal(b1-4)]GlcNAc6S
# Outline: as §1
# [44] = target: Fuc(a1-3)[Gal3S(b1-4)]Glc
# Outline: as §1
binder,measurement,setting,value
B1,glycan array binding signal (z-score),[1],-1.81
same,glycan array binding signal (z-score),[2],-1.83
same,glycan array binding signal (z-score),[3],0.227
same,glycan array binding signal (z-score),[4],0.015
same,glycan array binding signal (z-score),[5],-1.79
same,glycan array binding signal (z-score),[6],-0.257
same,glycan array binding signal (z-score),[7],1.44
same,glycan array binding signal (z-score),[8],-0.319
same,glycan array binding signal (z-score),[9],0.547
same,glycan array binding signal (z-score),[10],-0.072
same,glycan array binding signal (z-score),[11],-0.326
same,glycan array binding signal (z-score),[12],-0.481
same,glycan array binding signal (z-score),[13],-1.52
same,glycan array binding signal (z-score),[14],0.767
same,glycan array binding signal (z-score),[15],0.172
same,glycan array binding signal (z-score),[16],0.619
same,glycan array binding signal (z-score),[17],-1.4
same,glycan array binding signal (z-score),[18],0.735
same,glycan array binding signal (z-score),[19],-0.169
same,glycan array binding signal (z-score),[20],-1.1
same,glycan array binding signal (z-score),[21],0.281
same,glycan array binding signal (z-score),[22],-0.948
same,glycan array binding signal (z-score),[23],-1.56
same,glycan array binding signal (z-score),[24],-1.03
same,glycan array binding signal (z-score),[25],0.338
same,glycan array binding signal (z-score),[26],-2.2
same,glycan array binding signal (z-score),[27],-0.599
same,glycan array binding signal (z-score),[28],-0.402
same,glycan array binding signal (z-score),[29],-0.617
same,glycan array binding signal (z-score),[30],0.113
same,glycan array binding signal (z-score),[31],2.09
same,glycan array binding signal (z-score),Fuc(a1-3)GlcNAc,-1.28
same,glycan array binding signal (z-score),[32],-1.74
same,glycan array binding signal (z-score),[33],0.745
same,glycan array binding signal (z-score),[34],-0.53
same,glycan array binding signal (z-score),[35],1.98
same,glycan array binding signal (z-score),[36],-0.779
same,glycan array binding signal (z-score),[37],-0.355
same,glycan array binding signal (z-score),[38],1.74
same,glycan array binding signal (z-score),[39],2.81
same,glycan array binding signal (z-score),[40],-1.07
same,glycan array binding signal (z-score),[41],-0.452
same,glycan array binding signal (z-score),[42],-0.303
same,glycan array binding signal (z-score),[43],-2.11
same,glycan array binding signal (z-score),[44],0.856
